{"source": "patent US12685777B2", "about": "“Compositions, systems, and methods for modulating a target gene” (The Board of Trustees of the Leland Stanford Junior …, priority 2022, dated 2026)", "test_system": "BRD4, Pol II ser 2 phos, H3K27ac occupancy", "assay": "ChIP-seq of BRD4, Pol II ser 2 phos, H3K27ac in KARPAS422 cells", "conditions": "ChIP-seq", "note": "Certain results were filed several times, with different values. They are shown here; other results are not. The source may hold further records. The records of an entry differ for a reason that is not stated; they may come from other doses, times, organisms or constructs than stated."}
{"smiles": "CNC(=O)COc1cc2cc(Nc3nc(N4CCC(C(=O)NCCCCCCCNC(=O)C[C@@H]5N=C(c6ccc(Cl)cc6)c6c(sc(C)c6C)-n6c(C)nnc65)CC4)ncc3Cl)cc(OC)c2n(C)c1=O", "values": [{"measurement": "Loss of BRD4 from enhancers and super enhancers", "result": "10% and ~ 10% and less than 10%"}]}
